{"source": "patent US8637664B2", "about": "“Alkyl 4- [4- (5-oxo-2,3,5, 11a-tetrahydo-5H-pyrrolo [2, 1-c] [1,4] benzodiazepine-8-yloxy)-butyrylamino]-1H-pyrrole-2-carboxylate derivatives and related compounds for the treatment of a proliferative disease” (Spirogen SARL, priority 2005, dated 2014)", "origin": "cited, not measured here", "test_system": "transcription factor Sp1 binding to its cognate DNA sequence", "settings": "nuclear proteins from K562 cells on filter; cited from earlier work", "note": "Some entries share one result that the patent states for a list of compounds. At least one structure is not confirmed: it was looked up by name or label, or the drawing left a doubt.", "data": [{"smiles": "Cn1cc(NC(=O)c2cc(NC(=O)c3cc(NC=O)cn3C)cn2C)cc1C(=O)NCCC(=N)N", "note": "[distamycin A]", "values": [{"measurement": "concentration blocking binding of 32P-labelled Sp1 oligomer", "result": "> 50", "unit": "µM"}]}]}
